PubChem BioAssay AID652259 – Drosophila RNAi Screening Center – 2013
The screen tested about 22,000 reagents; this is a random part of those with a known target gene and a result. Of all reagents, 233 (1.1%) got an active call. 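Light values are raw, unnormalised plate reads; the ratio scores behind the reporter calls were not deposited.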 Unmarked entries are inactive. A plus sign joins genes that one reagent is predicted to hit. Reagent sequences are not shown. Not given: the amount of reagent, the time to read-out, the dose of the treatment.

Screen: 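Knock-downs that push a Wingless-driven reporter up or down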 (primary screen)
System: Drosophila clone 8 imaginal disc epithelial cells
Knock-down reagent: long dsRNA against Drosophila genes
Challenge: pathway stimulated by co-transfected Wingless expression plasmid
Measurement: 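Dual luciferase reads per well after Wingless plasmid stimulation: reporter firefly light and Renilla control light; activity is firefly divided by Renilla, a ratio not deposited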
Reading the numbers: firefly reporter light: higher = more Wg reporter light, before normalisation; Renilla control light: higher = more transfected or surviving cells
Hit rule: 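a knock-down is a candidate when at least two out of four statistical tests show it departing from its plate mean; one test alone signals a weak candidate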
Calls: active = candidate regulator (raises or lowers reporter); inactive = not a candidate

no.	target gene	PubChem SID	reporter change call, replicate 1	firefly reporter light, replicate 1	firefly reporter light, replicate 2	Renilla control light, replicate 1	Renilla control light, replicate 2
1	Ktl	SID104194062		2880	5596	1287	1616
2	Nin	SID104181799		6360		3061	
3	CG15221	SID104199451		14379		8005	
4	Ilp8	SID104189868		6082		2560	
5	Rbp4	SID104196610		12891		2405	
6	CG11426	SID104191450		16242		5997	
7	CG13033	SID104189705		4246		2198	
8	CG10472	SID104189522		6242		3339	
9	CG11929	SID104180131		2491	3293	1120	853
10	beat-Ib	SID104183282		2125	6487	816	2643
11	Cyp4ac3	SID104183096		24682		11101	
12	e(y)3	SID104199242		1416	4432	1063	2515
13	fj	SID104187411		6321		2740	
14	nolo	SID104183497		6496		1522	
15	nolo	SID104183511		2707	6843	675	2377
16	nolo	SID104183512		5411	6584	710	2226
17	vn	SID104191200	Wg reporter activity raised (active)	4957	11466	1212	1858
18	CG17129	SID104188300		11975		4552	
19	dpr12	SID104184606		16805		10068	
20	dpr12	SID104184655		2560	8053	672	3152
21	dpr12	SID104184684		2402	6756	845	2736
22	Lon	SID104190841		6406		2219	
23	CG31751	SID104182256		3881	8092	413	3266
24	CG31751	SID104182257		1995	8689	329	3392
25	CG15459	SID104200322		19045		10165	
26	CG15459	SID104201150		3.95e5	4.35e5	1.54e5	1.38e5
27	Inx3	SID104194649		2485	8453	1204	3709
28	PolI	SID104196059		17153		4055	
29	hec	SID104199687		20637		9240	
30	Vha100-2	SID104193944		3147	8982	1137	2208
31	miple1	SID104188514		6556		3303	
32	PRL-1	SID104183185		3523	7393	1721	2901

Copied from the list:
Under “firefly reporter light, replicate 1”, PolI [SID104196059] shows 17153
Value of Ktl [SID104194062] in “firefly reporter light, replicate 1”: 2880
Under “Renilla control light, replicate 1”, dpr12 [SID104184684] reads 845
beat-Ib [SID104183282], Renilla control light, replicate 1: 816
Entry of e(y)3 [SID104199242] in “Renilla control light, replicate 1”: 1063
Result for Inx3 [SID104194649] in “Renilla control light, replicate 1”: 1204

Continued:
no.	target gene	PubChem SID	reporter change call, replicate 1	firefly reporter light, replicate 1	firefly reporter light, replicate 2	Renilla control light, replicate 1	Renilla control light, replicate 2
33	acj6	SID104200096		3034	8150	1314	3115
34	eIF4E1	SID104191134		3159		1047	
35	CG15139 (retired record)	SID104182231		3753	16211	1139	3216
36	Jhbp11	SID104194975		7029		2896	
37	Bace	SID104181989		4633		496	
38	Tehao	SID104183241		2103	8477	916	2637
39	Pym	SID104201946		4.81e5	4.76e5	95431	53798
40	CG8195	SID104186895		13357		4054	
41	CG6184	SID104195778		12570		2808	
42	Rbcn-3B	SID104198366		20486		14407	
43	SoYb	SID104182693		2219	6752	1147	3656
44	lncRNA:CR32730	SID104202314		8.92e5	9.31e5	3.58e5	96529
45	snf	SID104198627		1658	9101	418	2807
46	FucT6	SID104199640		1922	5944	739	2282
47	CG18213	SID104195108		13829		3270	
48	asRNA:Eig63F-2 + Eip63F-1	SID104201188		3.60e5	4.00e5	1.45e5	1.31e5
49	CG13408	SID104193326		5152		2201	
50	CG13408	SID104194376		32475		6505	
51	CG6180	SID104182729		9988		3138	
52	pns	SID104188390		4880		2711	
53	CG15080	SID104186303		8428		3097	
54	Rrp47	SID104199916		29712		11155	
55	CG34224	SID104185061		14400		11753	
56	Mipp1	SID104191015		3800		1544	
57	CG3483	SID104184163		13520		3274	
58	CG32374	SID104190778		2453	10813	1596	4089
59	Rlip	SID104196620		13812		3142	
60	His-Psi:CR31616 + His-Psi:CR31615	SID104183552	Wg reporter activity raised (active)	20461		2507	
61	ZnT86D	SID104195883		17393		3394	
62	eEF1gamma	SID104196451		6619		2320	
63	TTLL15	SID104195335		13776		2522	
64	TAF1B	SID104195793		5244		2202	
65	Rgk1	SID104185577		15040		11328	
66	Rgk1	SID104185578		12485		12114	
67	Rgk1	SID104185581		21947		15370	
68	Rgk1	SID104187135		6098		1737	
69	Rgk1	SID104187136	Wg reporter activity raised	4113		555	
70	pros	SID104192648		2410		1507	
71	pros	SID104196824		9776		4490	
72	pros	SID104202026		7.35e5	7.54e5	1.28e5	1.12e5
73	RpS13	SID104183211		6676		3186	
